PubChem BioAssay AID651768 (National Center for Advancing Translational Sciences (NCATS), 2012)
The campaign covered roughly 360,000 compounds. About 1,700 (0.47%) were called active. Inconclusive results, whose numbers are uncertain, are shown with a selection of clear calls. Calls come from the whole dose curve; as a rule, active = well fitted inhibition curve with a large enough effect; inconclusive = small, poorly fitted or top-dose-only effect; inactive = no such curve, though single readings can be large or run the other way. A potency beside an inconclusive call is a rough fit, not a confirmed value.
% is set by controls: 0 for no effect and ±100 for the full control effect; potency is the fitted concentration of half-maximal effect.
Note: nearly all actives have a fitted effect of over 55% in size.

The chains behind the UniProt entries cited, without tags or fusion partners.
UniProt Q14191, whole entry, looked up: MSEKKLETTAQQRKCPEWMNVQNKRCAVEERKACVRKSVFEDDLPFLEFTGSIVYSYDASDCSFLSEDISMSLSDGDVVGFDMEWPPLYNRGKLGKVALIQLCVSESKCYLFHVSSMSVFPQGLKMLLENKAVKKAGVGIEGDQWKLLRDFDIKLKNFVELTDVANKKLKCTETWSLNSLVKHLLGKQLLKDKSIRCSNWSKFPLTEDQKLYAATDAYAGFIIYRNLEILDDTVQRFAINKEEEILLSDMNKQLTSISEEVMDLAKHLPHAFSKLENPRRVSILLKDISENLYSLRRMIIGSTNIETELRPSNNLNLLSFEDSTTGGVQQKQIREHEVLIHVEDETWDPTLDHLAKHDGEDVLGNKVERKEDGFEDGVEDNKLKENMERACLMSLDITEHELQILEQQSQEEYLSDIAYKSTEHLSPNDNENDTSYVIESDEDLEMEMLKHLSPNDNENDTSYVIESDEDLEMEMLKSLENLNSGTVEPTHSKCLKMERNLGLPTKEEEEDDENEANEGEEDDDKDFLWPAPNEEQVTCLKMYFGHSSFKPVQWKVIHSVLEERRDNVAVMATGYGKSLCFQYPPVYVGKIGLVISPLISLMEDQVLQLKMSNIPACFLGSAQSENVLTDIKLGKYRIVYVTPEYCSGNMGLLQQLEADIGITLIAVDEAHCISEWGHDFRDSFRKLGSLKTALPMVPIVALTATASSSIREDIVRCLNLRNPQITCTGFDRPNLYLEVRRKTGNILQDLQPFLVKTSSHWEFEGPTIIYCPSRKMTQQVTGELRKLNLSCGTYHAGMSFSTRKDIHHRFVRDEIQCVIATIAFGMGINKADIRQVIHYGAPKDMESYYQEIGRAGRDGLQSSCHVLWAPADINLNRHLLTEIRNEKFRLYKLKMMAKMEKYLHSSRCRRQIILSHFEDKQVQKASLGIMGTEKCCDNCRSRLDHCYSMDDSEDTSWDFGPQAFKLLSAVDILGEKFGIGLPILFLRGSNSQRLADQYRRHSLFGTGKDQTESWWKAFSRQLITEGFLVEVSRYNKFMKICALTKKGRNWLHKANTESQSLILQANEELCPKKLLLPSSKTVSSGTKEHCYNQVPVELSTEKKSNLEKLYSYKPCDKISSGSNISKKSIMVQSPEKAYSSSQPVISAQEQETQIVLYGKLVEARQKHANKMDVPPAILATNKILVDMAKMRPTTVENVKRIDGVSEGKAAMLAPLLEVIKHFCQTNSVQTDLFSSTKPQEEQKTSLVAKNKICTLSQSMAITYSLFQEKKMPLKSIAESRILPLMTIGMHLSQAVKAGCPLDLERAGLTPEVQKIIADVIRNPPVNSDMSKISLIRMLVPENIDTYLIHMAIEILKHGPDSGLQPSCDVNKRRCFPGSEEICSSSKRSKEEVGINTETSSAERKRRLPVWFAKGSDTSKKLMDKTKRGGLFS

These compounds were tested against Bifunctional 3'-5' exonuclease/ATP-dependent helicase WRN (Homo sapiens) (UniProt Q14191) (assay: qHTS for Inhibitors of WRN Helicase). Details: WRN helicase unwinding, fluorescent forked duplex, kinetic; activity change, negative = inhibition: at 114 µM (top of the series) unless noted.
Procedure, shortened: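 Primary qHTS, 1536-well format. 20 nM WRN + compound, 15 min RT; start with 100 nM forked fluorophore/quencher duplex, 2 mM ATP (final); kinetic read ex 525/em 598 nm.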
`O=C(NC1=NCCS1)C1CCN(S(=O)(=O)c2cc([N+](=O)[O-])ccc2Cl)CC1` was tested, and the Potency was inconclusive: 11.2 µM [inhibitor, partial curve, poor fit].
`O=C(c1cc(-c2cccnc2)nc2ccc(Cl)cc12)N1CCN(S(=O)(=O)c2cccs2)CC1` was tested, and the Potency was inconclusive: 28.2 µM [inhibitor, full curve, poor fit].
For `COC(=O)c1cc([N+](=O)[O-])c(-n2ccnc2)c([N+](=O)[O-])c1`, the Potency was inconclusive: 44.7 µM [inhibitor, full curve, poor fit].
With `COc1ccc2c3c(cccc13)N(C)N=C2C` the Potency was inconclusive: 50.1 µM [inhibitor, partial curve].
For `CCOC(=O)CC(NS(=O)(=O)Cc1ccccc1)c1ccc(C)cc1` (stereo not given), the Potency was inconclusive: 39.8 µM [inhibitor, single point].
With `CC(C)c1cccc(-c2ccc3c(c2)S(=O)(=O)c2cccc(C(=O)O)c2C3=O)c1` the “activity change, negative = inhibition” value was inactive: -11.9%.
For `O=C(CN1CCN(C(=O)c2ccccc2)CC1)Nc1ccccc1`, the “activity change, negative = inhibition” value was inactive: 11.3%.
`COc1ccc(C(=O)N2CCC2(C)C(=O)O)cc1C(F)(F)F` (stereo not given) was tested, and the “activity change, negative = inhibition” value was inactive: 1.69%.
With `Cc1cc(O)c(C(=O)/C=C/c2ccc(Cl)cc2)c(=O)o1` the “activity change, negative = inhibition” value was inactive: -19.6%.
For `CCOC(=O)c1c(O)c2c([nH]c1=O)CCCC2`, the “activity change, negative = inhibition” value was inactive: 7.78%.
With `Cc1cccc(-n2c(O)c(/C=N/NC(=O)c3ccccc3Cl)c3ccccc3c2=O)n1` the Potency was inconclusive: 11.2 µM [inhibitor, partial curve].
In the case of `COc1ccccc1-c1ccc(/C=C2\C=CC(=O)O2)o1`, the Potency is reported as inconclusive: 56.2 µM [inhibitor, partial curve].
For `Cc1cc(O)c(C=Nc2ccc(Cl)cn2)c(=O)o1`, the Potency was inconclusive: 79.4 µM [inhibitor, single point].
With `CCOC(=O)c1sc2nc(-c3ccco3)c3c(c2c1N)CC(C)(C)OC3` the Potency was inconclusive: 35.5 µM [inhibitor, partial curve].
For `NC(=O)C1CCN(C(=O)c2ccc(OCC(=O)Nc3cccc(C(F)(F)F)c3)cc2)CC1`, the “activity change, negative = inhibition” value was inactive: -0.863%.
For `Cc1nnc(SCC(=O)N/N=C/c2cc(Cl)c(O)c(Cl)c2)s1`, the “activity change, negative = inhibition” value was inactive: -14%.
`CSc1nsc2nc(=O)c(/C=C3\C(C)=Nc4ccc(C)cc43)c(N)n12` was tested, and the Potency was inconclusive: 56.2 µM [inhibitor, partial curve].
With `O=C(/C=C/c1ccc(-c2ccccc2[N+](=O)[O-])o1)c1ccco1` the Potency was inconclusive: 22.4 µM [inhibitor, full curve, poor fit].
With `C/C(=N\NC1=NCCN1)c1ccc(N)c([N+](=O)[O-])c1` the Potency was inconclusive: 10 µM [inhibitor, full curve].
For `NC(CSC1(c2cccc3ccccc23)c2ccccc2-c2ccccc21)C(=O)O` (stereo not given), the Potency was inconclusive: 22.4 µM [inhibitor, single point].
With `NC(=O)c1ccsc1NC(=O)COC(=O)/C=C/c1ccccc1[N+](=O)[O-]` the Potency was inconclusive: 28.2 µM [inhibitor, full curve].
`Cc1ccc(C(=O)NCCCNC(=O)Cc2ccc(Cl)cc2)cn1` was tested, and the Potency was inconclusive: 89.1 µM [inhibitor, single point].
With `C=CCn1c(SCC(=O)Nc2ccc3c(c2)OCO3)nnc1-c1cc(Br)ccc1O` the Potency was inconclusive: 25.1 µM [inhibitor, full curve, poor fit].
For `O=C(CCl)Nc1nc(-c2ccco2)c(-c2ccco2)s1`, the activity change, negative = inhibition was inactive: -5.93% [at 11.6 µM].
`Cc1ccc(S(=O)c2snnc2C)cc1` (stereo not given) was tested, and the “activity change, negative = inhibition” value was inactive: 17.6%.
In the case of `Nc1cccc2c(O)cc(S(=O)(=O)O)cc12`, the Potency is reported as inconclusive: 2.38 µM [inhibitor, partial curve].
For `COc1ccc(S(=O)(=O)N(C)c2ccc(C(=O)NCc3ccccn3)cc2)cc1OC`, the Potency was inconclusive: 89.1 µM [inhibitor, single point].
In the case of `CCCCNC(=S)N/N=C/C1=CCC2CC1C2(C)C` (stereo not given), the Potency is reported as inconclusive: 11.2 µM [inhibitor, partial curve].
In the case of `Cc1cccc(OCc2nc3ccccc3c(=O)n2N)c1`, the “activity change, negative = inhibition” value is reported as inactive: -8.8%.
In the case of `CC1CCN(Cc2c(O)ccc3c2O/C(=C\c2ccco2)C3=O)CC1`, the Potency is reported as inconclusive: 39.8 µM [inhibitor, partial curve].
In the case of `COc1ccc(CNC(=O)CN2C(=O)C(c3ccccc3)Oc3cccnc32)cc1` (stereo not given), the “activity change, negative = inhibition” value is reported as inactive: -5.12%.
`S=c1[nH]nc(-c2ccncc2)n1/N=C/c1cn(-c2ccccc2)nc1-c1ccccc1` was tested, and the “activity change, negative = inhibition” value was inactive: -2.94%.
For `CN(CCCn1ccc(N)nc1=O)Cc1ccco1`, the “activity change, negative = inhibition” value was inactive: 1.92%.
For `O=C1/C(=C\c2ccco2)CCC/C1=C\c1ccco1`, the Potency was active: 15.8 µM.
For `CCN(C(=O)CSc1nnc(CNc2cccc(OC)c2)n1C1CCCCC1)C1CCS(=O)(=O)C1` (stereo not given), the Potency was inconclusive: 3.55 µM [inhibitor, partial curve, poor fit].
For `COc1ccccc1/C=C/C=N/n1c(-c2cc(-c3ccccc3)n[nH]2)n[nH]c1=S`, the Potency was inconclusive: 7.94 µM [inhibitor, full curve, poor fit].
`O=C(Nc1cccc([N+](=O)[O-])c1)c1ccc2c(c1)C(=O)N(c1ccccn1)C2=O` was tested, and the “activity change, negative = inhibition” value was inactive: -18.2%.
In the case of `O=c1oc2ccccc2cc1-c1csc(NN=C2CCCC2)n1`, the “activity change, negative = inhibition” value is reported as inactive: 7.08%.
`Cc1c(Cl)cccc1NS(=O)(=O)c1ccc2c(c1)C1C=CCC1C(c1ccc(C(=O)O)cc1)N2` (stereo not given) was tested, and the Potency was active: 31.6 µM.
In the case of `O=C(c1ccc(Cl)c(S(=O)(=O)N2CCOCC2)c1)N1CCc2ccccc2C1`, the Potency is reported as inconclusive: 15.8 µM [inhibitor, single point].
For `Cc1ccc(C(=S)N2CCN(Cc3ccccc3)CC2)s1`, the “activity change, negative = inhibition” value was inactive: -20.4%.
`CC(=O)Nc1ccc2c(COC(=O)CC3Sc4ccccc4NC3=O)cc(=O)oc2c1` (stereo not given) was tested, and the Potency was inconclusive: 29.9 µM [inhibitor, partial curve].
`O=C(CCCc1ccccc1)Nc1ccc(Br)cc1F` was tested, and the Potency was inconclusive: 70.8 µM [inhibitor, single point].
For `O=C(c1ccc(S(=O)(=O)Cc2cc(F)ccc2F)c([N+](=O)[O-])c1)N1CCCC1`, the Potency was inconclusive: 50.1 µM [inhibitor, partial curve].
`CCCOc1ccc(-c2csc3ncn(Cc4ccc(C(=O)O)cc4)c(=O)c23)cc1` was tested, and the “activity change, negative = inhibition” value was inactive: -1.28%.
